According to PubChem BioAssay AID1259354 (Paczesny and Yang Labs, IUPUI and University of Michigan, 2018):
The campaign covered roughly 78,000 compounds. About 1,800 (2.3%) were called active. The inconclusive results got no clear call from the source; some entries with a clear call stand among them for comparison. Cut-off read from the data, not from the text of the source: active = inhibition above about 30%; inconclusive = mostly about 10% to 28%; inactive = weaker than that.

Protein sequences, listed by entry. Tags and fused reporters are not part of them. Lines headed by an entry give the natural chain unless they say otherwise; changes in a name come on top.
UniProt Q01638: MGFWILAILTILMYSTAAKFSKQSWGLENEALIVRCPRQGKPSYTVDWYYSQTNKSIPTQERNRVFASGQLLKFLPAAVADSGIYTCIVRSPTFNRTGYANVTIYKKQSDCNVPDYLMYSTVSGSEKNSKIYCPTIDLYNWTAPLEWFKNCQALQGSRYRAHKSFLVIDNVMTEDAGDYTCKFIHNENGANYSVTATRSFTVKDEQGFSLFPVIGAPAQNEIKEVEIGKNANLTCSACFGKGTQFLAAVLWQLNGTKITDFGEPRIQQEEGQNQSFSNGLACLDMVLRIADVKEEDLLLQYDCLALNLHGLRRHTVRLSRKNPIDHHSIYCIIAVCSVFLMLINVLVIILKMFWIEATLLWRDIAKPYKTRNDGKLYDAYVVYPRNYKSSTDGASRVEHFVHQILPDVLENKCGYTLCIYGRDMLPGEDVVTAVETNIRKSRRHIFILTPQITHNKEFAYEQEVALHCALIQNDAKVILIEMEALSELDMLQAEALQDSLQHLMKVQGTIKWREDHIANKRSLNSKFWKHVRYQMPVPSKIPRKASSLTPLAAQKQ

Target: Interleukin-1 receptor-like 1 (Homo sapiens) (UniProt Q01638)
Test: blocks human ST2 binding to IL-33, primary screen, biochemical, AlphaLISA (AID 1259354)
Details: AlphaLISA ST2-Fc/biotin-IL-33 interaction, 1 h; at 17 µM, active compounds read high

SMILES | inhibition
CCC(CC)C(=O)NC[C@H]1O[C@@H](CC(=O)N2CCCC2)[C@H](O)[C@@H]1O | inconclusive: 16%
C#CCOc1ccc(C(=O)N[C@@H]2CN(Cc3ccc(CO)o3)CCC[C@H]2O)cc1 | inconclusive: 13%
CCn1ccnc1CN1CCc2c([nH]c3ccccc23)C1c1ccc(SC)cc1 (stereo unspecified) | inconclusive: 14%
CCc1noc(CN(CC)C(=O)c2ccc3ncsc3c2)n1 | inconclusive: 12%
CCOc1ccc(/C=c2\sc3n(c2=O)CN(c2ccc4c(c2)OCO4)CN=3)cc1 | active: 31%
CCN1CCc2c(sc(NC(=O)c3ccc(C(C)=O)cc3)c2C(=O)OC)C1 | inconclusive: 20%
CC(=O)N1CCC(N2CCOC(CC(c3ccccc3)c3ccccc3)C2)CC1 (stereo unspecified) | inconclusive: 11%
COc1ccc(C(=O)CN2C3=NCCN3c3ccccc32)cc1OC | inactive
COc1ccc(-c2noc([C@@H]3C[C@@H](O)CN3Cc3ccccn3)n2)cc1 | inconclusive: 15%
CCCc1nc2c(o1)CC(C)(C)CC2=O | inconclusive: 21%
Cc1cc(NC(=O)c2ccco2)ccc1-c1cc2ccccc2oc1=O | inconclusive: 14%
CC(C)NC(=O)c1cc2c(=O)n3ccccc3nc2n1C | inactive
O=C1Nc2ccc(Br)cc2C(O)(C(=O)NC2CC2)N1c1ccc(Cl)cc1 (stereo unspecified) | inconclusive: 11%
CCC(C)NC(=O)c1ccc(CS(=O)(=O)c2ccc(Br)cc2)o1 (stereo unspecified) | inconclusive: 14%
COc1cc(C(=O)Nc2nc(-c3cc(Cl)sc3Cl)cs2)cc(OC)c1OC | inactive
CCCn1cc(C(=O)N2C[C@H](N(C)C)C[C@H]2CO)c(C)n1 | inconclusive: 11%
CCN(CC)c1ccc2cc(C(=O)Nc3ccccc3C)c(=N)oc2c1 | inconclusive: 11%
CC1CCCCN1CCN(C)C(=O)/C=C/c1ccccc1 (stereo unspecified) | inactive
CN1C(=O)C2(CCCN(C(=O)c3c[nH]c(=O)cn3)C2)c2ccccc21 (stereo unspecified) | inactive
O=C(CSc1nnc2sc3ccccc3n12)Nc1cc(Cl)ccc1Cl | inactive
O=[N+]([O-])c1ccc(N=Cc2nc(-c3ccc(Cl)cc3)oc2O)cc1 | inactive
COCCn1c(CN2C[C@@H](C)O[C@@H](C)C2)cnc1S(=O)(=O)CC1CC1 | inconclusive: 10%
N#Cc1ccc(CN2CC[C@H](c3nnc(-c4ccccc4)o3)C2)cc1 | inconclusive: 12%
Fc1ccc(CSc2nnc(COc3ccc4c(c3)CCCC4)o2)cc1 | inactive
CN(CCNC(=O)c1cccnc1)S(C)(=O)=O | inconclusive: 19%
O=C(NCc1ccc2c(c1)OCO2)C1c2ccccc2C(=O)N2CCc3ccccc3C12 (stereo unspecified) | inconclusive: 16%

Compounds from the list above containing bromine:
SMILES | inhibition
O=C1Nc2ccc(Br)cc2C(O)(C(=O)NC2CC2)N1c1ccc(Cl)cc1 (stereo unspecified) | inconclusive: 11%
CCC(C)NC(=O)c1ccc(CS(=O)(=O)c2ccc(Br)cc2)o1 (stereo unspecified) | inconclusive: 14%
